From patent US20250120417A1, “FEED ADDITIVE COMPOSITIONS AND METHODS FOR USING THE SAME” (INT[…]&H DENMARK APS, priority 2021, published 2025)

Tested on: HT-29 cells
Type: cell-based, human

Compound: NCCC[C@H](N)C(=O)O [ornithine]
- HT29 cell death: approximately 32%
